# Test results as given in US6338963B1, “Use of carbon monoxide dependent guanylyl cyclase modifiers to stimulate neuritogenesis” (NeoTherapeutics, Inc., priority 1994, dated 2002).
# How the values were obtained:
# [1] = system: Swiss Webster mice; test: Win-shift T-maze memory test, Swiss Webster mice; format: in vivo
# Protocol: Male Swiss Webster mice six months (young adult) and eleven months (old) of age, obtained from the National Institute on Aging, were maintained in individual cages, on a […] light/dark cycle with continuous access to water. Food was limited so that the mice stabilized at 80% of free feeding weight. Mice were weighed and handled daily for one week. The win-shift model was run as described in the literature and consists of a T-maze in which the correct response alternates after each correct trial. The interval between trials is varied and allows for the determination of the longest period between trials that a subject can remember the correct response on the previous trial. This allows the measure of the duration of the memory trace. […] The reward goal box is alternated after each correct trial. Ten trials per mouse are run each day. […] The latency time to leave the start box is recorded as a measure of motivation, the running time (the time from leaving the start box to reaching the goal box) is recorded as a measure of performance, and the number of correct responses as a measure of memory.
# The drugs used in this example are 4-((3-(1,6-dihydro-6-oxo-9-purin-9-yl)-1-oxopropyl)amino) benzoic acid (AIT-082), as an exemplary potassium salt, tacrine hydrochloride (tetrahydroaminoacridine, THA, Sigma Chemical Co., St. Louis, Mo.), and physostigmine, hemisulfate salt (PHY, Sigma Chemical Co., St. Louis, Mo.). The drugs were dissolved in saline and prepared fresh daily. All injections were made at a volume of 0.1 ml/10 grams body weight. When testing drug effects, intraperitoneal (i.p.) injections of AIT-082 or THA were made one hour prior to the start of testing. Due to its shorter duration of action, PHY was injected 30 minutes prior to testing. Control subjects receive a similar injection of saline (vehicle).
# To determine the duration of the memory trace, subjects were administered drug or saline and 30 minutes (PHY) or 1 hour (AIT-082 or THA) later they were given a single reference run with the milk reward in both goal boxes. After the indicated inter-trial delay, subjects were returned to the start box and given the first test trial with the milk reward only in the goal box opposite to the one entered on the previous correct trial. The subjects were given 10 trials with the reward alternating only after correct responses.
# To determine if tolerance to the biological effects of AIT-082 developed, drug or saline was administered daily for 18 days prior to the testing in the standard win-shift paradigm.
# [2] = system: C57BL/6 mice; test: Ethanol-induced working memory deficit (win-shift); format: in vivo
# Protocol: Six month old male C57BL/6 mice were evaluated in the win-shift model in combination with treatment with ethanol, a non-specific memory suppressant, and AIT-082. Subjects were treated with saline (control) or AIT-082 (30 mg/kg. i.p.) 1 hour prior to testing. Ethanol was administered at a dose of 0.5 gm/kg i.p. ten minutes prior to testing.
# [3] = Ethanol + AIT-082 30 mg/kg i.p.
compound,measurement,setting,value
"O=C(CCn1cnc2c(=O)[nH]cnc21)Nc1ccc(C(=O)O)cc1 [AIT-082, N-4-carboxyphenyl-3-(6-oxohydropurin-9-yl)propanamide]","Win-shift Memory Test, Latency time",[1]; AIT-082 0.5 mg/kg,1.95 s
same,"Win-shift Memory Test, Running time",[1]; AIT-082 0.5 mg/kg,2.20 s
same,"Win-shift Memory Test, Latency time",[1]; AIT-082 30.0 mg/kg,2.03 s
same,"Win-shift Memory Test, Running time",[1]; AIT-082 30.0 mg/kg,1.95 s
same,Latency time,[2]; [3],1.77 ± 0.27 s
same,Running time,[2]; [3],3.22 ± 0.61 s
"CCO [Ethanol, ethanol, reference compound]",Latency time,[2]; Ethanol 0.5 gm/kg i.p.,1.18 ± 0.10 s
same,Running time,[2]; Ethanol 0.5 gm/kg i.p.,1.17 ± 0.08 s
"Nc1c2c(nc3ccccc13)CCCC2 [THA, tacrine hydrochloride, reference compound]","Win-shift Memory Test, Latency time",[1]; THA 1.25 mg/kg,8.22* seconds
same,"Win-shift Memory Test, Running time",[1]; THA 1.25 mg/kg,3.65* seconds
"physostigmine, hemisulfate salt [reference compound]","Win-shift Memory Test, Running time",[1]; PHY 0.125 mg/kg,2.65 s

# Structures can show the parent of a compound that is named as a salt. Marks after values point to notes of the source that are not given here.
